Earlier results as cited in patent US11717580B2, “Cyclodextrin-linked polyvalent ligands for complexation of metal ions” (UTI LIMITED PARTNERSHIP, priority 2018, dated 2023).
At least one structure is not confirmed: it was looked up by name or label, or the drawing left a doubt. Some results were stated once for a whole list of compounds, not compound by compound.

Assays:
[1] = cited from earlier work
[2] = 20 MHz; cited from earlier work

Compound: O=C([O-])CN(CCN(CC(=O)[O-])CC(=O)O)CCN(CC(=O)[O-])CC(=O)O.[Gd+3] [Gd-DTPA]
- pGd values taken from the literature [1]: 19.1
- relaxivity [2]: 3.5 to 4.3 mM⁻¹ s⁻¹
